According to PubChem BioAssay AID288 (DTP/NCI, 2004):
The list is a part of this screen's results and no random one: it is rich in T/C values a quarter to a half above the control, in often repeated tests (any T/C) and in doses without a T/C. Further doses and runs are listed elsewhere. T/C: endpoint of the treated group in % of that of the vehicle group. Schedules are NCI's codes, read here as Q, the interval in days (D) or hours (H), X, the number of doses. Some doses have a count of surviving animals in place of a T/C: the source files T/C as zero there, which appears to mark a toxic dose or a test without result, not a measured value. Some doses without a T/C left all or most animals alive at the check, yet need not have been tolerated: the source hardly ever lists a survival T/C far under the control, and the zero likely stands for such cases as well. Counts of survivors are from the toxicity check (mostly the fifth day) where no day follows; animals may have died later. Some entries hold several experiments; their values stand side by side, smallest first. For survival time, the PubChem record calls one and a half times the control and up active, and a quarter to a half above the control has no call in these data; cut-offs in other NCI protocols can differ. Some T/C values are followed by the survivors on the day toxicity was checked, most often the fifth; without a count, all were alive then.

Test system: BDF1 mice, M5076 sarcoma s.c., survival/tumor T/C
Test: NCI In Vivo Anticancer Drug Screen. Data for tumor model Sarcoma M5076 (subcutaneous) in B6D2F1 (BDF1) mice
Protocol: The antitumor activity of compounds was measured in mice bearing transplantable tumors. Survival or tumor size were measured and the results are expressed as the measurement made in the treated group (T) divided by the measurement made in the vehicle treated control group (C). The tumor model used in this assay is Sarcoma M5076 (subcutaneous) in B6D2F1 (BDF1) mice

[1] = T/C endpoint: median survival time, dose: 200.0 mg/kg/injection, schedule: Q01DX009 (ip), vehicle: saline with Tween-80, higher T/C = longer survival
[2] = T/C endpoint: median tumor weight (est.), dose: 200.0 mg/kg/injection, schedule: Q01DX009 (ip), vehicle: saline with Tween-80, higher T/C = larger tumour

O=C1N[C@H]2[C@H](O)[C@H](O)[C@@H](O)[C@H](O)[C@@H]2c2cc3c(c(O)c21)OCO3
T/C (T/C endpoint: median survival time, dose: 3.0 mg/kg/injection, schedule: Q01DX009 (ip), vehicle: saline + Tween-80 + alcohol, higher T/C = longer survival): 125 % of control [9 of 10 alive]
survivor count (T/C endpoint: median survival time, dose: 6.0 mg/kg/injection, schedule: Q01DX009 (ip), vehicle: saline + Tween-80 + alcohol, higher T/C = longer survival): 5 of 10
T/C (T/C endpoint: median survival time, dose: 6.0 mg/kg/injection, schedule: Q01DX009 (ip), vehicle: saline + alcohol, higher T/C = longer survival): 126 % of control
survivor count (T/C endpoint: median survival time, dose: 12.0 mg/kg/injection, schedule: Q01DX009 (ip), vehicle: saline + Tween-80 + alcohol, higher T/C = longer survival): 0 of 10
survivor count (T/C endpoint: median tumor weight (est.), dose: 6.0 mg/kg/injection, schedule: Q01DX009 (ip), vehicle: saline + Tween-80 + alcohol, higher T/C = larger tumour): 4 of 10 on day 20
survivor count (T/C endpoint: median tumor weight (est.), dose: 12.0 mg/kg/injection, schedule: Q01DX009 (ip), vehicle: saline + Tween-80 + alcohol, higher T/C = larger tumour): 0 of 10 on day 20

Cc1ccc(S(=O)(=O)O)cc1.Cc1ccc(S(=O)(=O)O)cc1.[NH-]C1CCCCC1[NH-].[Pt+2]
T/C (T/C endpoint: median survival time, dose: 0.5 mg/kg/injection, schedule: Q02DX032 (ip), vehicle: dextrose, higher T/C = longer survival): 125 % of control
T/C (T/C endpoint: median survival time, dose: 1.0 mg/kg/injection, schedule: Q02DX032 (ip), vehicle: dextrose, higher T/C = longer survival): 144 % of control
T/C (T/C endpoint: median survival time, dose: 2.0 mg/kg/injection, schedule: Q02DX032 (ip), vehicle: dextrose, higher T/C = longer survival): 138 % of control

Cc1ccc(C(=O)N=Nc2c(Cl)c(O)c3ccccc3c2O)cc1
survivor count (T/C endpoint: median survival time, dose: 50.0 mg/kg/injection, schedule: Q01DX009 (ip), vehicle: saline with Tween-80, higher T/C = longer survival): 7 of 10 on day 9
survivor count (T/C endpoint: median survival time, dose: 100.0 mg/kg/injection, schedule: Q01DX009 (ip), vehicle: saline with Tween-80, higher T/C = longer survival): 9 of 10 on day 9
survivor count [1]: 1 of 10 on day 9
survivor count (T/C endpoint: median tumor weight (est.), dose: 50.0 mg/kg/injection, schedule: Q01DX009 (ip), vehicle: saline with Tween-80, higher T/C = larger tumour): 6 of 10 on day 20
survivor count [2]: 1 of 10 on day 20

O=C1N=C(Oc2ccccc2)SC1=O
survivor count (T/C endpoint: median survival time, dose: 100.0 mg/kg/injection, schedule: Q04DX003 (ip), vehicle: saline with Tween-80, higher T/C = longer survival): 5 of 10 on day 57
survivor count (T/C endpoint: median survival time, dose: 200.0 mg/kg/injection, schedule: Q04DX003 (ip), vehicle: saline with Tween-80, higher T/C = longer survival): 2 of 10 on day 57
survivor count (T/C endpoint: median survival time, dose: 400.0 mg/kg/injection, schedule: Q04DX003 (ip), vehicle: saline with Tween-80, higher T/C = longer survival): 0 of 10 on day 57

COc1ccc(Cl)cc1NC(=O)NNC(=O)C(=O)Nc1ccc(F)cc1
T/C (T/C endpoint: median tumor weight (est.), dose: 100.0 mg/kg/injection, schedule: Q01DX009 (ip), vehicle: saline with Tween-80, evaluated on day 20, higher T/C = larger tumour): 147 % of control

Cc1c(N)nc([C@H](CC(N)=O)NC[C@H](N)C(N)=O)nc1C(=O)N[C@H](C(=O)N[C@H](C)[C@@H](O)[C@H](C)C(=O)N[C@H](C(=O)NCCc1nc(-c2nc(C(=O)NCCC[S+](C)C)cs2)cs1)[C@@H](C)O)C(OC1OC(CO)C(O)C(O)C1OC1OC(CO)C(O)C(OC(N)=O)C1O)c1cnc[nH]1 (stereo partly specified)
T/C (T/C endpoint: median survival time, dose: 6.4 mg/kg/injection, schedule: Q04DX009 (ip), vehicle: saline, higher T/C = longer survival): 144 % of control
T/C (T/C endpoint: median survival time, dose: 12.8 mg/kg/injection, schedule: Q04DX009 (ip), vehicle: saline, higher T/C = longer survival): 128 % of control

O=C(O)c1ccc(C(=O)O)c(C(=O)O)c1.[NH-]C1CCCCC1[NH-].[Pt+2]
T/C (T/C endpoint: median survival time, dose: 3.11 mg/kg/injection, schedule: Q04DX005 (ip), vehicle: sodium bicarbonate, higher T/C = longer survival): 136 % of control
T/C (T/C endpoint: median survival time, dose: 5.18 mg/kg/injection, schedule: Q04DX005 (ip), vehicle: sodium bicarbonate, higher T/C = longer survival): 127 % of control
survivor count (T/C endpoint: median survival time, dose: 24.0 mg/kg/injection, schedule: Q04DX005 (ip), vehicle: sodium bicarbonate, higher T/C = longer survival): 10 of 10 on day 9
survivor count (T/C endpoint: median survival time, dose: 40.0 mg/kg/injection, schedule: Q04DX005 (ip), vehicle: sodium bicarbonate, higher T/C = longer survival): 10 of 10 on day 9
survivor count (T/C endpoint: median tumor weight (est.), dose: 24.0 mg/kg/injection, schedule: Q04DX005 (ip), vehicle: sodium bicarbonate, higher T/C = larger tumour): 2 of 10 on day 22
survivor count (T/C endpoint: median tumor weight (est.), dose: 40.0 mg/kg/injection, schedule: Q04DX005 (ip), vehicle: sodium bicarbonate, higher T/C = larger tumour): 0 of 10 on day 22

O=C1NC2(CCCCC2)C(=O)N1CCN(CCCl)CCCl
T/C (T/C endpoint: median survival time, dose: 16.0 mg/kg/injection, schedule: Q01DX009 (ip), vehicle: saline with Tween-80, higher T/C = longer survival): 133 % of control
survivor count (T/C endpoint: median survival time, dose: 32.0 mg/kg/injection, schedule: Q01DX009 (ip), vehicle: saline with Tween-80, higher T/C = longer survival): 2 of 10 on day 9
survivor count (T/C endpoint: median survival time, dose: 64.0 mg/kg/injection, schedule: Q01DX009 (ip), vehicle: saline with Tween-80, higher T/C = longer survival): 0 of 10 on day 9
survivor count (T/C endpoint: median survival time, dose: 128.0 mg/kg/injection, schedule: Q01DX009 (ip), vehicle: saline with Tween-80, higher T/C = longer survival): 0 of 10 on day 9
survivor count (T/C endpoint: median tumor weight (est.), dose: 32.0 mg/kg/injection, schedule: Q01DX009 (ip), vehicle: saline with Tween-80, higher T/C = larger tumour): 0 of 10 on day 20
survivor count (T/C endpoint: median tumor weight (est.), dose: 64.0 mg/kg/injection, schedule: Q01DX009 (ip), vehicle: saline with Tween-80, higher T/C = larger tumour): 0 of 10 on day 20
survivor count (T/C endpoint: median tumor weight (est.), dose: 128.0 mg/kg/injection, schedule: Q01DX009 (ip), vehicle: saline with Tween-80, higher T/C = larger tumour): 0 of 10 on day 20

CN(C)CCCNc1c2ccccc2nc2cccc([N+](=O)[O-])c12
T/C (T/C endpoint: median tumor weight (est.), dose: 16.0 micrograms/kg/injection, schedule: Q02DX011 (ip), vehicle: saline, evaluated on day 22, higher T/C = larger tumour): 128 % of control

CSC1SCC2C(=O)N(C)C(C(C)C)C(=O)OCC(NC(=O)c3cnc4ccccc4n3)C(=O)NC(C)C(=O)N(C)C1C(=O)N(C)C(C(C)C)C(=O)OCC(NC(=O)c1cnc3ccccc3n1)C(=O)NC(C)C(=O)N2C (stereo unspecified)
survivor count (T/C endpoint: median survival time, dose: 0.24 mg/kg/injection, schedule: Q04DX003 (ip), vehicle: saline with Tween-80, higher T/C = longer survival): 2 of 10
survivor count (T/C endpoint: median survival time, dose: 0.48 mg/kg/injection, schedule: Q04DX003 (ip), vehicle: saline with Tween-80, higher T/C = longer survival): 0 of 10

CC1(CO)C(O)CCC2(C)C1CCC1CC3CC12CCC3(O)CO (stereo unspecified)
T/C (T/C endpoint: median survival time, dose: 23.3 mg/kg/injection, schedule: Q01DX017 (ip), vehicle: Klucel (hydroxypropylcellulose) (HPC), higher T/C = longer survival): 129 % of control
T/C (T/C endpoint: median survival time, dose: 23.3 mg/kg/injection, schedule: Q01DX017 (sc), vehicle: Klucel (hydroxypropylcellulose) (HPC), higher T/C = longer survival): 149 % of control
T/C (T/C endpoint: median survival time, dose: 38.9 mg/kg/injection, schedule: Q01DX017 (ip), vehicle: Klucel (hydroxypropylcellulose) (HPC), higher T/C = longer survival): 135 % of control
T/C (T/C endpoint: median survival time, dose: 64.8 mg/kg/injection, schedule: Q01DX017 (sc), vehicle: Klucel (hydroxypropylcellulose) (HPC), higher T/C = longer survival): 131 % of control
survivor count (T/C endpoint: median survival time, dose: 180.0 mg/kg/injection, schedule: Q01DX017 (ip), vehicle: Klucel (hydroxypropylcellulose) (HPC), higher T/C = longer survival): 3 of 10 on day 9
T/C (T/C endpoint: median survival time, dose: 180.0 mg/kg/injection, schedule: Q01DX017 (oral), vehicle: Klucel (hydroxypropylcellulose) (HPC), higher T/C = longer survival): 125 % of control
survivor count (T/C endpoint: median survival time, dose: 180.0 mg/kg/injection, schedule: Q01DX017 (sc), vehicle: Klucel (hydroxypropylcellulose) (HPC), higher T/C = longer survival): 4 of 10 on day 9 and 8 of 10 on day 9
T/C (T/C endpoint: median survival time, dose: 232.0 mg/kg/injection, schedule: Q01DX017 (oral), vehicle: Klucel (hydroxypropylcellulose) (HPC), higher T/C = longer survival): 145 % of control
survivor count (T/C endpoint: median survival time, dose: 300.0 mg/kg/injection, schedule: Q01DX017 (oral), vehicle: Klucel (hydroxypropylcellulose) (HPC), higher T/C = longer survival): 10 of 10 on day 9
survivor count (T/C endpoint: median survival time, dose: 300.0 mg/kg/injection, schedule: Q01DX017 (sc), vehicle: Klucel (hydroxypropylcellulose) (HPC), higher T/C = longer survival): 4 of 10 on day 9
survivor count (T/C endpoint: median survival time, dose: 500.0 mg/kg/injection, schedule: Q01DX017 (oral), vehicle: Klucel (hydroxypropylcellulose) (HPC), higher T/C = longer survival): 8 of 10 on day 9
survivor count (T/C endpoint: median survival time, dose: 1000.0 mg/kg/injection, schedule: Q04DX005 (ip), vehicle: Klucel (hydroxypropylcellulose) (HPC), higher T/C = longer survival): 10 of 10

CC1CCC(NC(=O)N(CCF)N=O)CC1 (stereo unspecified)
survivor count (T/C endpoint: median survival time, dose: 40.0 mg/kg/injection, schedule: Q01DX003 (ip), vehicle: saline with Tween-80, higher T/C = longer survival): 5 of 10 on day 65
survivor count (T/C endpoint: median survival time, dose: 50.0 mg/kg/injection, schedule: Q01DX003 (ip), vehicle: saline with Tween-80, higher T/C = longer survival): 0 of 10 on day 65
survivor count (T/C endpoint: median survival time, dose: 75.0 mg/kg/injection, schedule: Q01DX001 (ip), vehicle: saline with Tween-80, higher T/C = longer survival): 1 of 10 on day 65
survivor count (T/C endpoint: median survival time, dose: 75.0 mg/kg/injection, schedule: Q01DX003 (ip), vehicle: saline with Tween-80, higher T/C = longer survival): 0 of 10 on day 65
survivor count (T/C endpoint: median survival time, dose: 100.0 mg/kg/injection, schedule: Q01DX001 (ip), vehicle: saline with Tween-80, higher T/C = longer survival): 0 of 10 on day 65
survivor count (T/C endpoint: median survival time, dose: 150.0 mg/kg/injection, schedule: Q01DX001 (ip), vehicle: saline with Tween-80, higher T/C = longer survival): 0 of 10 on day 65

CC(=O)Nc1ccc(OC(=O)Nc2ccc(C)c(NC(=O)Oc3ccc(NC(C)=O)cc3)c2)cc1
survivor count [1]: 6 of 10 on day 9
survivor count [2]: 5 of 10 on day 20
